# Laboratory results as given in US7326732B2, “EP2 receptor agonists” (Pharmagene Laboratories Limited, priority 2004, dated 2008).
# Sequences of proteins named here, by UniProt entry; tags and fusion partners are left off. A change or cut given only in a name is not applied to a line headed by its entry.
# UniProt P43116: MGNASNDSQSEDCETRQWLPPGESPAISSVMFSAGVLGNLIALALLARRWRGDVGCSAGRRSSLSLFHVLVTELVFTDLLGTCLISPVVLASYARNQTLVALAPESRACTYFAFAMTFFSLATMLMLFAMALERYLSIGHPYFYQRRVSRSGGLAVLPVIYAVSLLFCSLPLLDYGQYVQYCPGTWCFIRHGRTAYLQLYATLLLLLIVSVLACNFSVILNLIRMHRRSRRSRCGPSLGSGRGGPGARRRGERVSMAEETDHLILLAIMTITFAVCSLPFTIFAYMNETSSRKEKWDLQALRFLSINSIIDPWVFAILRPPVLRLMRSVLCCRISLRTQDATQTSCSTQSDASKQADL
# At least one compound was matched to its structure with a doubt left.
# Target: T1, human EP2 prostanoid receptors (Homo sapiens, UniProt P43116)
# T1 construct: expressed in transfected cells; host or cells: HEK-293
# Assay: Agonist activity at recombinant human EP2 prostanoid receptors (cAMP in HEK-293 clones)
# Format: cell-based
# Settings: functional classification at EP2
# Method: Culture media was Minimal essential media (MEM), supplemented with 10% foetal bovine serum, 100 U/ml penicillin, […] streptomycin, 2.5 μg/ml fungizone, 2mM glutamine. Cells were cultured to confluency (3-4 days) prior to use. Culture media was removed, and confluent cells washed three times in MEM. […] Cells were then stimulated by the addition of 25 μl of PGE2 or agonists prepared in assay buffer. In antagonist studies, cells were pre-incubated with compounds for 30 minutes prior to PGE2-mediated stimulation Plates were incubated for 15 min at 37° C., before termination of the reaction by the addition of 25 μl 1M HCl. The plate was then frozen at -20° C. overnight before determination of cAMP concentration. Stimulated cAMP levels were determined by radioligand displacement binding. In brief, plates were thawed rapidly in a waterbath, and the samples neutralised by the addition of 25 μl 1M NaOH. 30 μl was transferred to Millipore plates pre-coated with 0.5% Polyethylenimine (PEI). […] 50 μl Microscint 0 (Packard Bioscience) was added to each well, and the plate counted using the Micro-Beta Trilux topcount ^3H program. cAMP accumulation was determined from the standard curve, and values calculated in pmoles cAMP/well. Antagonists affinities (pA2 values) were determined assuming a slope of unity and the […]-Schild equation, where pA2=log [concentration ratio-1]-log[antagonist].
structure (smiles),measurement,value
O=C(Nc1cccc(CCO)c1)c1ccc(-c2ccccc2)o1 [Compound 74],activity (EP2 part),EP2 agonist
